These are yes or no findings as the source states them, for the method shown. Binding seen in cells or lysates may run through a third protein. A result given as binding can be weak or reduced; the word gives no strength. Where a sequence is shown, tags or fusion partners need not be part of it.
Molecular target: T1, Fat intracellular domain, 3xFLAG-tagged (pAc-ftICD-3xFLAG) (Drosophila melanogaster) (UniProt P33450)
T1 sequence: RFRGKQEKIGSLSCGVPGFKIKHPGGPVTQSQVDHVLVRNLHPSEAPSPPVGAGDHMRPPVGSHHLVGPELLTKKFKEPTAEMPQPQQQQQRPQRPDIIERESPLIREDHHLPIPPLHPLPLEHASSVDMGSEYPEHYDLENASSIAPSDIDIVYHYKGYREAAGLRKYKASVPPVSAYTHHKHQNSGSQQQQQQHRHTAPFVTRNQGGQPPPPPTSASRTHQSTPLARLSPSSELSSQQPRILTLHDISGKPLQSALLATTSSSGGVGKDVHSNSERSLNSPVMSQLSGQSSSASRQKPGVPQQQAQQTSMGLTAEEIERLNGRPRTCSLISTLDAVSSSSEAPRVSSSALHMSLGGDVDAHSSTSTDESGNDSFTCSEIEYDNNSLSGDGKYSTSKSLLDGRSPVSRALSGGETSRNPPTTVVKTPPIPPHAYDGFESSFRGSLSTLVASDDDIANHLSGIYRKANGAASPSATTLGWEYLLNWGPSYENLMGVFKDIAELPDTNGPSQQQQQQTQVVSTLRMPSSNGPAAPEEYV
Assay: co-IP

By UniProt entry, the sequences of proteins in these tests, tags left out. Where a name states a change or a piece, a line headed by the entry shows the natural chain unless it says otherwise.
UniProt P30052: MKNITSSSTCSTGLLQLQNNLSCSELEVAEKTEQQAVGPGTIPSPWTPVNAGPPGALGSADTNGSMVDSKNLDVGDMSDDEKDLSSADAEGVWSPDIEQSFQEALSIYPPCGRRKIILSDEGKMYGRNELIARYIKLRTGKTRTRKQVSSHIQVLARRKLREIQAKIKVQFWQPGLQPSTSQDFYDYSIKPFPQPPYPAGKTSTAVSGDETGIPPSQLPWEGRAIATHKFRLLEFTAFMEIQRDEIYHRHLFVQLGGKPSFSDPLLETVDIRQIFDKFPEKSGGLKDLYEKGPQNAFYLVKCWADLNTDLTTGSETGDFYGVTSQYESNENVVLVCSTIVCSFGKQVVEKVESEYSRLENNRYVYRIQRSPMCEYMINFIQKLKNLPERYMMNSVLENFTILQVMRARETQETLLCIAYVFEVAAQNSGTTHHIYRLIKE

Scalloped C-terminal part, HSV-tagged (pAc-HSV-sdC) (from UniProt P30052) (domain or fragment)
binding: binds
